Measurements reported in PubChem BioAssay AID493246 (Drosophila RNAi Screening Center, 2011)

Screen: 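Genome-wide search for dsRNAs that reduce cell number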 (primary screen)
System: Drosophila Kc and S2R+ cells
Reagent: long dsRNA against Drosophila genes
Read-out: 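Cell number per well after knock-down, printed as raw plate values; calls were based on per-plate z-scores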
Scale: Kc cell number and S2R+ cell number: higher = more cells remaining
Active means: 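Counted as a hit if cell number falls by a z-score of at least 3 within its plate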
The deposit covers about 21,000 reagents; this is a random part of those with a known target gene and a result. Of all reagents, 429 (2%) got an active call. 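Values are raw and not normalised between plates; calls rest on per-plate z-scores that were not deposited.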 A plus sign joins genes that one reagent is predicted to hit. Not given: the amount of reagent, the time to read-out.

For JYalpha [DRSC17224], how do the results read?
Kc cell number, rep 1: 1.57e6; Kc cell number, rep 2: 1.49e6; S2R+ cell number, rep 1: 1.12e6; S2R+ cell number, rep 2: 1.25e6; outcome: inactive

What did the screen give for CG1275 [DRSC08294]?
Kc cell number, rep 1: 1.41e6; Kc cell number, rep 2: 1.47e6; S2R+ cell number, rep 1: 1.14e6; S2R+ cell number, rep 2: 1.22e6; outcome: inactive

For SkpF + CG5357 (retired record) [DRSC04120], what does the deposit list?
Kc cell number, rep 1: 1.47e6; Kc cell number, rep 2: 1.57e6; S2R+ cell number, rep 1: 1.25e6; S2R+ cell number, rep 2: 1.24e6; outcome: inactive

With CG3635 [DRSC03729], what was measured?
Kc cell number, rep 1: 1.49e6; Kc cell number, rep 2: 1.54e6; S2R+ cell number, rep 1: 1.24e6; S2R+ cell number, rep 2: 3.38e5; outcome: inactive

For CG5768 [DRSC15870], what was measured?
Kc cell number, rep 1: 1.50e6; Kc cell number, rep 2: 1.47e6; S2R+ cell number, rep 1: 1.21e6; S2R+ cell number, rep 2: 1.16e6; outcome: inactive

What did the screen give for Argl + CG9515 [DRSC03243]?
Kc cell number, rep 1: 1.47e6; Kc cell number, rep 2: 1.56e6; S2R+ cell number, rep 1: 1.03e6; S2R+ cell number, rep 2: 1.05e6; outcome: inactive

How did the screen score Argl + CG9515 [DRSC03245]?
Kc cell number, rep 1: 1.54e6; Kc cell number, rep 2: 1.59e6; S2R+ cell number, rep 1: 1.16e6; S2R+ cell number, rep 2: 1.29e6; outcome: inactive

Which result is listed for CG11474 [DRSC04112]?
Kc cell number, rep 1: 1.44e6; Kc cell number, rep 2: 1.50e6; S2R+ cell number, rep 1: 1.10e6; S2R+ cell number, rep 2: 1.10e6; outcome: inactive

With Cep135 [DRSC09345], how do the results read?
Kc cell number, rep 1: 1.66e6; Kc cell number, rep 2: 1.78e6; S2R+ cell number, rep 1: 1.13e6; S2R+ cell number, rep 2: 1.31e6; outcome: inactive

How did the screen score Cep135 [DRSC10244]?
Kc cell number, rep 1: 1.45e6; Kc cell number, rep 2: 1.50e6; S2R+ cell number, rep 1: 1.25e6; S2R+ cell number, rep 2: 1.27e6; outcome: inactive

For CG4053 [DRSC15538], how do the results read?
Kc cell number, rep 1: 1.34e6; Kc cell number, rep 2: 1.46e6; S2R+ cell number, rep 1: 1.25e6; S2R+ cell number, rep 2: 1.42e6; outcome: inactive

Which result is listed for CG14177 (retired record) [DRSC10176]?
Kc cell number, rep 1: 1.29e6; Kc cell number, rep 2: 1.41e6; S2R+ cell number, rep 1: 1.23e6; S2R+ cell number, rep 2: 1.30e6; outcome: inactive

Which result is listed for SMC5 [DRSC11849]?
Kc cell number, rep 1: 1.59e6; Kc cell number, rep 2: 1.59e6; S2R+ cell number, rep 1: 1.38e6; S2R+ cell number, rep 2: 1.36e6; outcome: inactive

Which result is listed for ND-B16.6 [DRSC18306]?
Kc cell number, rep 1: 1.67e6; Kc cell number, rep 2: 1.61e6; S2R+ cell number, rep 1: 9.61e5; S2R+ cell number, rep 2: 1.04e6; outcome: inactive

How did the screen score Gld2 [DRSC15863]?
Kc cell number, rep 1: 9.84e5; Kc cell number, rep 2: 9.97e5; S2R+ cell number, rep 1: 5.91e5; S2R+ cell number, rep 2: 6.71e5; outcome: inactive

For GstE9 [DRSC06679], how do the results read?
Kc cell number, rep 1: 1.46e6; Kc cell number, rep 2: 1.55e6; S2R+ cell number, rep 1: 1.14e6; S2R+ cell number, rep 2: 1.28e6; outcome: inactive

With CG8773 [DRSC16444], what was measured?
Kc cell number, rep 1: 1.48e6; Kc cell number, rep 2: 1.55e6; S2R+ cell number, rep 1: 1.37e6; S2R+ cell number, rep 2: 1.42e6; outcome: inactive

What did the screen give for Oatp74D [DRSC09491]?
Kc cell number, rep 1: 1.49e6; Kc cell number, rep 2: 1.61e6; S2R+ cell number, rep 1: 1.11e6; S2R+ cell number, rep 2: 1.26e6; outcome: inactive

Which result is listed for Oatp74D [DRSC10883]?
Kc cell number, rep 1: 1.47e6; Kc cell number, rep 2: 1.49e6; S2R+ cell number, rep 1: 1.16e6; S2R+ cell number, rep 2: 1.27e6; outcome: inactive

With rux [DRSC18829], what does the deposit list?
Kc cell number, rep 1: 5.57e5; S2R+ cell number, rep 1: 8.74e5; outcome: inactive

Which result is listed for Chc [DRSC20229]?
Kc cell number, rep 1: 5.07e5; S2R+ cell number, rep 1: 7.80e5; outcome: inactive

Part of the list above, set out differently.
Target gene | DRSC id | Kc cell number, rep 1 | Kc cell number, rep 2 | S2R+ cell number, rep 1 | S2R+ cell number, rep 2 | outcome
ND-B16.6 | DRSC18306 | 1.67e6 | 1.61e6 | 9.61e5 | 1.04e6 | inactive
Gld2 | DRSC15863 | 9.84e5 | 9.97e5 | 5.91e5 | 6.71e5 | inactive
